Test results from the supplement of paper PMC4749390.
Structures can show the parent of a compound that is named as a salt. The list shows a part of the results. Single values are uncertain here, since repeats match poorly.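 Wild-type human LRH-1, a heavily sumoylated nuclear receptor, is tetracycline-inducible in stable JEG3 cells. RT-qPCR measured SUMO-sensitive APOC3 and MUC1 transcripts, which rise with SUMO-less LRH-1 or UBC9 knockdown, versus TBP and DMSO controls. Robust Z-scores beyond ±2 flagged primary hits, followed by toxicity and TBP filtering.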

Each compound was assayed on JEG3 expressing hLRH-1 (assay: MUC1 transcript change (ddCt vs TBP and DMSO), Z-score over library; higher = higher MUC1 expression). Settings: 10 µM; time (hr): 24.

Row | SMILES | MUC1 transcript change (Z-score)
1 | CC(=O)O[C@H]1C[C@@H]2CC[C@@H]3[C@H](CC[C@@]4(C)[C@H]3C[C@H]([N+]3(C)CCCCC3)[C@@H]4OC(C)=O)[C@@]2(C)C[C@@H]1[N+]1(C)CCCCC1 [pancuronium bromide] | 0.0667
2 | O=C(N/N=C/c1ccc([N+](=O)[O-])o1)c1cc([N+](=O)[O-])cc([N+](=O)[O-])c1O [nifursol] | -0.85
3 | C=CCN1CC[C@]23c4c5ccc(O)c4O[C@H]2C(=O)CC[C@@]3(O)[C@H]1C5 [naloxone hydrochloride] | -0.109
4 | O=C(NC(=O)c1c(F)cccc1F)Nc1cc(Cl)c(OC(F)(F)C(F)C(F)(F)F)cc1Cl (stereo not given) [lufenuron] | -0.349
5 | CO[C@]12C[C@@H](COC(=O)c3cncc(Br)c3)CN(C)[C@@H]1Cc1cn(C)c3cccc2c13 [nicergoline] | 0.32
6 | CC[C@@]1(C2O[C@@H](C3O[C@@](O)(CC)[C@H](C)C[C@@H]3C)C[C@@H]2C)CC[C@H]([C@]2(C)CCC3(C[C@H](O)[C@@H](C)[C@@H]([C@H](C)[C@@H](OC)[C@H](C)C(=O)O)O3)O2)O1 (stereo not given in full) [monensin sodium (monensin a is shown)] | 0.81
7 | COP(=O)(OC)C(O)C(Cl)(Cl)Cl (stereo not given) [trichlorfon] | 0.593
8 | CN(C)C(=O)Oc1cc(OC(=O)N(C)C)cc(C(O)CNC(C)(C)C)c1 (stereo not given) [bambuterol hydrochloride] | -0.926
9 | CN(C)C(=O)Oc1cccc([N+](C)(C)C)c1 [Neostigmine bromide] | 1.01
10 | COP(=O)(OC)OC=C(Cl)Cl [dichlorvos] | -0.138
11 | S=C=NCc1ccccc1 [benzyl isothiocyanate] | 0.73
12 | CCC(C)[C@H]1O[C@]2(C=C[C@@H]1C)C[C@@H]1C[C@@H](C/C=C(\C)[C@@H](OC3C[C@H](OC)C(O[C@H]4C[C@H](OC)[C@@H](O)[C@H](C)O4)[C@H](C)O3)[C@@H](C)/C=C/C=C3\CO[C@@H]4[C@H](O)C(C)=C[C@@H](C(=O)O1)[C@]34O)O2 (stereo not given in full) [avermectin b1] | 0.457
13 | O=c1[nH]c(=O)n(Cl)c(=O)n1Cl [troclosene potassium] | -0.189
14 | CCCC(C)(COC(N)=O)COC(=O)NC(C)C (stereo not given) [Carisoprodol] | 0.751
15 | CN1C2CC[C@@H]1C[C@@H](OC(=O)[C@H](CO)c1ccccc1)C2 [hyoscyamine] | -0.575
16 | CN(C)[C@@H]1C(=O)C(C(N)=O)=C(O)[C@@]2(O)C(O)=C3C(=O)c4c(O)cccc4[C@@](C)(O)[C@H]3[C@H](O)[C@@H]12 [oxytetracycline] | 0.691
17 | CN1CCN(C(=O)O[C@H]2c3nccnc3C(=O)N2c2ccc(Cl)cn2)CC1 [eszopiclone] | 1.35
18 | NC(=O)C[S@@](=O)C(c1ccccc1)c1ccccc1 [armodafinil] | -0.00878
19 | CN(C)[C@@H]1C(=O)C(C(N)=O)=C(O)[C@@]2(O)C(O)=C3C(=O)c4c(O)ccc(Cl)c4[C@@](C)(O)[C@H]3C[C@@H]12 [chlortetracycline] | 0.773
20 | CCC1(c2ccc(N)cc2)CCC(=O)NC1=O (racemic) [(±)-p-Aminoglutethimide] | 0.648
21 | NCC(CC(=O)O)c1ccc(Cl)cc1 (racemic) [(±)-Baclofen] | 0.512
22 | CC(C)CC(N(C)C)C1(c2ccc(Cl)cc2)CCC1 (stereo not given) [sibutramine hydrochloride] | 0.638
23 | CC(C)[N+](C)(CCC(C(N)=O)(c1ccccc1)c1ccccc1)C(C)C [isopropamide iodide] | -0.0216

Reprinted: compounds 4–6
Row | SMILES | MUC1 transcript change (Z-score)
4 | O=C(NC(=O)c1c(F)cccc1F)Nc1cc(Cl)c(OC(F)(F)C(F)C(F)(F)F)cc1Cl (stereo not given) [lufenuron] | -0.349
5 | CO[C@]12C[C@@H](COC(=O)c3cncc(Br)c3)CN(C)[C@@H]1Cc1cn(C)c3cccc2c13 [nicergoline] | 0.32
6 | CC[C@@]1(C2O[C@@H](C3O[C@@](O)(CC)[C@H](C)C[C@@H]3C)C[C@@H]2C)CC[C@H]([C@]2(C)CCC3(C[C@H](O)[C@@H](C)[C@@H]([C@H](C)[C@@H](OC)[C@H](C)C(=O)O)O3)O2)O1 (stereo not given in full) [monensin sodium (monensin a is shown)] | 0.81

Following part:

Row | SMILES | MUC1 transcript change (Z-score)
24 | O=C1CC[C@@]2(O)[C@H]3Cc4ccc(O)c5c4[C@@]2(CCN3CC2CC2)[C@H]1O5 [naltrexone hydrochloride] | -0.0823
25 | CCOC(=O)CC(SP(=S)(OC)OC)C(=O)OCC (stereo not given) [malathion] | 0.33
26 | CN(C)[C@@H]1C(=O)C(C(N)=O)=C(O)[C@@]2(O)C(O)=C3C(=O)c4c(O)cccc4[C@@](C)(O)[C@H]3C[C@@H]12 [tetracycline hydrochloride] | -0.41
27 | CCCN1C[C@H](CSC)C[C@@H]2c3cccc4[nH]cc(c34)C[C@H]21 [Pergolide methanesulfonate] | 0.601
28 | CC(N)Cc1ccc(O)cc1 (stereo not given) [hydroxyamphetamine hydrobromide] | -1.41
29 | CC(NC(C)(C)C)C(=O)c1cccc(Cl)c1 (stereo not given) [Bupropion hydrochloride] | 0.269
30 | NCc1cccnc1 [picolamine] | 0.193
31 | NC1C[C@H]1c1ccccc1 (stereo not given in full) [tranylcypromine sulfate] | 1.24
32 | O=P1(N(CCCl)CCCl)NCCCO1 (stereo not given) [cyclophosphamide hydrate] | -0.163
33 | CCCCOC(=O)c1ccccc1C(=O)OCCCC [dibutyl phthalate] | -0.935
34 | N#Cc1nn(-c2c(Cl)cc(C(F)(F)F)cc2Cl)c(N)c1S(=O)C(F)(F)F (stereo not given) [fipronil] | 0.415
35 | O=c1cccc2n1C[C@@H]1CNC[C@H]2C1 [cytisine] | -0.416
36 | Cl[C@H]1[C@H](Cl)[C@@H](Cl)[C@@H](Cl)[C@H](Cl)[C@H]1Cl [lindane] | -3.65
37 | CCOP(=S)(OCC)Oc1ccc2c(C)c(Cl)c(=O)oc2c1 [coumophos] | -0.787
38 | C#CC(C)(O)CC (stereo not given) [meparfylon] | 0.328
39 | Cc1ccc(-c2nc3ccc(C)cn3c2CC(=O)N(C)C)cc1 [zolpidem] | -0.815
40 | CCCC(C)C1(CC)C(=O)N=C(S)NC1=O (stereo not given) [thiopental sodium] | 0.412
41 | COC(C)(C)CCC[C@H](C)C/C=C/C(C)=C/C(=O)OC(C)C [methoprene (s)] | 0.935
42 | O=[N+]([O-])c1cc([As](=O)(O)O)ccc1O [roxarsone] | 0.2
43 | CC(C)c1cccc(C(C)C)c1O [Propofol] | 0.491
44 | Oc1ccc2c3c1O[C@H]1[C@@H](O)CC[C@@]4(O)[C@@H](C2)N(CC2CCC2)CC[C@]314 [nalbuphine hydrochloride] | 0.199
45 | CC1(C)C(C=C(Cl)Cl)C1C(=O)OC(C#N)c1cccc(Oc2ccccc2)c1 (stereo not given) [cypermethrin] | 0.539
